# Measured values published in the supplement of paper PMC12578635.
# ± gives the standard deviation of the averaged measurements. The list shows a part of the results. Repeats are few or missing, and single values can be far off.
# System: RAW 264.7 macrophages infected with S. aureus JE2-lux
# Test: host macrophage viability (CellTiter-Fluor) relative to DMSO vehicle; higher = more viable host cells
# Conditions: 10 µM; treatment time 4 h; gentamicin 50 µg/ml
row,Compound,host macrophage viability [%]
1,Cc1cccn2c(=O)nc(SCC(=O)Nc3ccccc3F)nc12,119
2,Cc1nn2c(=O)/c(=C\c3cccnc3)sc2nc1=O,117
3,O=C(CCN1C(=O)c2ccccc2S1(=O)=O)Nc1ccc(F)c([N+](=O)[O-])c1,114
4,Cc1ccc(C(=O)CSc2nnc3cc(C)c4ccccc4n23)s1,111
5,COc1ccc(OC)c(NC(=O)Cn2c(=O)n(C(C)C)c3ncccc32)c1,113
6,O=C(CCC1CCCC1)N1CCN(c2ncnc3c2nnn3-c2ccc(F)cc2)CC1,112
7,COc1cc(/C=N/NC(=O)CNC(=O)c2cccc3ccccc23)cc(OC)c1OC,107
8,COc1cc(OC)cc(C(=O)N2CCN(c3nc4ccccc4cc3-c3noc(C)n3)CC2)c1,90.3
9,Cc1nc(-n2nc(C)c(CC(=O)N3CCCCC3)c2O)sc1C,113
10,c1ccc2c(c1)c(N1CCN(Cc3ccc4c(c3)OCO4)CC1)nn1nnnc21,102
11,Cn1ncc2c1CCc1sc(NC(=O)CC3CCS(=O)(=O)C3)nc1-2 (stereo not drawn),113
12,Cc1ccc(NC(=S)NC2CC3CCC(C2)N3Cc2ccccc2)cc1C (stereo not drawn),102
13,c1csc(CCNc2nn3cnnc3c3ccccc23)c1,73.8
14,NC(=O)Cn1cnc2c(sc3ncccc32)c1=O,110
15,O=C(CC1Sc2ccccc2NC1=O)Nc1ccc(Cl)cc1[N+](=O)[O-] (stereo not drawn),112
16,CCC(=O)Oc1cccc(N2C(=O)c3ccc(C(=O)O)cc3C2=O)c1,110 ± 4.1
17,c1ccc(CNc2nc(-c3ccccc3)no2)cc1,125
18,CC(C)c1ccc(NC(=O)CSc2nncc(=O)[nH]2)cc1,106
19,O=C(CSc1nc2sc3c(c2c(=O)[nH]1)CCCC3)Nc1nccs1,106
20,CCC(Cn1nc2c(C)cc3ccccc3n2c1=O)NC(=O)c1ccco1 (stereo not drawn),119
21,Cc1nnc(NC(=O)CSc2c(CC(C)C)cnc3c2c(=O)n(C)c(=O)n3C)s1,127
22,O=C(NCc1nnnn1-c1ccc(F)cc1)C1CC(=O)N(c2ccc(F)cc2)C1 (stereo not drawn),112
23,O=C(CCC(=O)N1CC(c2ccccc2)Oc2cccnc21)NCc1ccc(Cl)cc1 (stereo not drawn),90.7
24,O=C(NCC1COC2(CCCCC2)O1)c1ccccc1F (stereo not drawn),95.4
25,COc1cc(/C=C/C(=O)C2=C(O)c3ccccc3C2=O)ccc1O,109
26,COC(=O)c1ccc(CSc2nc(=O)n3ccc(C)cc3n2)o1,101

row,Compound,host macrophage viability [%]
1,O=C(O)C1=CC(c2c[nH]nc2-c2ccc(F)cc2)n2ncnc2N1 (stereo not drawn),123
2,CCOc1cc(NC(=O)c2cccc(Cl)c2)c(OCC)cc1NC(=O)c1ccc(Cl)cc1,127
3,CC(=O)c1ccc(-c2ccc(/C=C(\C#N)S(=O)(=O)c3ccccc3)o2)cc1,126
4,Cc1cccc(S(=O)(=O)N(C)Cc2nc3cc(C(=O)N4CCCC4)ccc3n2C)c1,111
5,CCOC(=O)c1oc2ccccc2c1NC(=O)c1cc2ccccc2oc1=O,120 ± 16
6,COC(=O)c1ccc(NC(=O)C(C)N2C(=O)c3ccccc3S2(=O)=O)cc1 (stereo not drawn),110
7,Cc1cc(C)nc(SCc2cc(=O)c(OC(=O)COc3ccccc3C)co2)n1,111
8,CCCCN(C)S(=O)(=O)c1ccc(C(=O)Nc2nc3c(s2)CSc2ccccc2-3)cc1,105
9,CCS(=O)(=O)c1cccc(C(=O)Nc2nc3c(F)cc(F)cc3s2)c1,124
10,O=C(COc1cccc2c1CCN(Cc1ccccc1)C2=O)N1CCCC1,125
11,Cc1csc(N2C(=N)SC(c3ccccc3)C2=O)n1 (stereo not drawn),138
12,c1ccc(-c2csc3ncnc(Sc4ccc5c(c4)OCCO5)c23)cc1,115
13,O=C(CCC(=O)NC1CCCCC1)Nc1noc2ccccc12,102
14,O=C(Oc1c(CN2CCOCC2)cc(Cl)c2cccnc12)c1ccco1,147
15,CC(C)Cn1c(=O)c2sccc2n2c(CCCC(=O)NCc3ccc4c(c3)OCO4)nnc12,96.5
16,CC(C)[C@H](Cn1nc(-c2ccc(F)c(F)c2)ccc1=O)NC(=O)c1ccc(=O)[nH]n1,126
17,O=[N+]([O-])c1ccc2[nH]c(SCc3cn4cccnc4n3)nc2c1,98.3
18,CN1C(=O)/C(=N\NC(=O)CCCC(=O)N/N=C2/C(=O)N(C)c3ccccc32)c2ccccc21,119
19,CSc1cccc(NC(=O)CN2N=NC3C(=O)N(c4ccc(F)c(F)c4)C(=O)C32)c1 (stereo not drawn),115
20,CN(C)CCCNS(=O)(=O)c1ccc2c(c1)NC(=O)C(C)(C)O2,92.4
21,O=C(CSc1ncnc2c1oc1ccccc12)Nc1nccs1,103
22,O=C(CSc1nnc2[nH]c(=O)c(-c3ccc(Cl)cc3)nn12)c1ccc([N+](=O)[O-])cc1,115
23,CC(=O)Nc1ccc(S(=O)(=O)NCCc2cn3ccc(C)cc3n2)cc1,127
24,CCC(=O)Nc1ccc(NC(=O)c2cc(OC)c(OC)c(OC)c2)cn1,107
25,COc1cccc(NC(=O)N2C3CCCC2CC(NC(C)=O)C3)c1 (stereo not drawn),122
26,COc1ccc(N2C(=O)CC(NNC(=O)c3ccccc3)C2=O)cc1 (stereo not drawn),136

row,Compound,host macrophage viability [%]
1,CCn1c(=O)c(-c2noc(CCC(=O)Nc3ccc(OC)cc3)n2)nn(-c2ccc(C)cc2)c1=O,113
2,COc1ccc(Cc2cnc(NC(=O)/C=C/c3ccc([N+](=O)[O-])cc3)s2)cc1,119 ± 14
3,Nc1c(C(=O)c2ccccc2)sc2nc3c(c(-c4ccco4)c12)CC/C3=C\c1ccco1,109
4,CCOCCCn1c(SCC(=O)Nc2ccc(C)cc2C)nc2c(oc3ccccc32)c1=O,108
5,CCOC(=O)c1sc(NC(=O)c2cc3c(ccc4ccccc43)oc2=O)cc1C,112 ± 1.8
6,C=CCOc1ccccc1NC(=O)c1nnn(-c2ccccc2)c1C,96.2
7,CCOc1ccccc1CNC(=O)c1sc(-n2cccc2)nc1C,119
8,COc1cccc(C(=O)Nc2c(-n3cnnc3)nn(C)c2C)c1,94.9
9,COc1cc(OC)cc(C(=O)Nc2cc3c4c(c2)CCC(=O)N4CCC3)c1,114
10,Cc1ccc2[nH]c3nc(SCC(=O)Nc4ccc5c(c4)OCO5)nnc3c2c1,96.5
11,CCOC(=O)CSc1nc(C)nc2c1c(=O)n(C)c(=O)n2C,107 ± 24
12,CC1CCc2nc(NC(=S)NC(=O)c3ccccc3)sc2C1 (stereo not drawn),116
13,O=C(NNC1=C/C(=N/S(=O)(=O)c2ccccc2)c2ccccc2C1=O)c1cccc([N+](=O)[O-])c1,90.3
14,CC(=O)N1CCc2nc(NC(=O)c3cccs3)sc2C1,113
15,Cc1c(C)n2c(SCC(=O)NC3CCCCC3)nnc2[nH]c1=O,99.1
16,CC(=O)N1CCc2c(sc(NC(=O)c3cc(C)ccc3C)c2C#N)C1,125
17,CSc1cccc(NC(=O)CSc2nc3c(oc4ccccc43)c(=O)n2Cc2ccco2)c1,122
18,Cc1ccc(Cn2c(SCc3cc(=O)n4cc(Cl)ccc4n3)nc3ccsc3c2=O)cc1,136
19,O=C(O)c1cccc(Cn2c(Cl)c(/C=N/NC(=O)c3ccncc3)sc2=O)c1,123
20,CC(C)c1nc2ccccc2c2nnc(SCC(=O)Nc3ccc(F)cc3)n12,105
21,Cc1cccc(NC(=O)NC2CC(=O)N(c3ccc(F)cc3)C2)n1 (stereo not drawn),119
22,COCCCNC(=O)Cn1c(C)cc(=O)n2nc(-c3ccccc3Cl)nc12,119
23,O=C(Nc1ccccc1F)C(=O)c1c[nH]c2ccccc12,114.2 ± 0.95
24,O=C(Nc1ccon1)C1CCN(S(=O)(=O)c2cccs2)CC1,111
25,O=C(Nc1ccc2c(c1)CCC2)C1CCN(C(=O)NC2CCCCC2)CC1,120
26,NS(=O)(=O)c1ccc(CNC(=O)c2cccn3c(-c4ccc(F)cc4)nnc23)cc1,107

# Structural class, those above with a COOH group
row,Compound,host macrophage viability [%]
16,CCC(=O)Oc1cccc(N2C(=O)c3ccc(C(=O)O)cc3C2=O)c1,110 ± 4.1
1,O=C(O)C1=CC(c2c[nH]nc2-c2ccc(F)cc2)n2ncnc2N1 (stereo not drawn),123
19,O=C(O)c1cccc(Cn2c(Cl)c(/C=N/NC(=O)c3ccncc3)sc2=O)c1,123

# Three compounds already listed, sorted by formula weight, high to low.
row,Compound,host macrophage viability [%]
5,CCOC(=O)c1sc(NC(=O)c2cc3c(ccc4ccccc43)oc2=O)cc1C,112 ± 1.8
20,CC(C)c1nc2ccccc2c2nnc(SCC(=O)Nc3ccc(F)cc3)n12,105
10,Cc1ccc2[nH]c3nc(SCC(=O)Nc4ccc5c(c4)OCO5)nnc3c2c1,96.5

# (next part)

row,Compound,host macrophage viability [%]
1,CCCc1cc(C(=O)N2CCCC2c2ccc(C)cc2)no1 (stereo not drawn),115
2,CCOC(=O)N1CCN(C(=O)CSCC(=O)/N=c2\sc3cc(OC)ccc3n2C)CC1,130
3,Cc1ccc2c(Cl)c(C(=O)Nc3cc(-c4ccc(F)cc4)no3)sc2c1,112
4,O=C(O)c1cccc(N2C(=O)CC(Nc3ccc(F)cc3)C2=O)c1 (stereo not drawn),129
5,COc1ccc(-c2cc(C(=O)Nc3cc(C)n(C)n3)ccc2-n2ccnc2)cc1,107
6,COc1ccc2oc(=O)c(C(=O)NC3=C(C#N)CCC3)cc2c1,102
7,Oc1nc(SCc2cc3c(cc2Cl)OCO3)nc2[nH]cnc12,116
8,CCS(=O)(=O)c1ccccc1C(=O)N1CCN(c2nc3ccc([N+](=O)[O-])cc3s2)CC1,119
9,CCc1ccc(NC(=O)c2cnn3c(=O)cc(C)[nH]c23)cc1,103
10,O=C(CSc1ncnc2ccccc12)Nc1cccc(C(F)(F)F)c1,112 ± 9.4
11,CCOC(=O)c1c(NC(=O)C(C)Sc2nc(=O)n3cc(C)ccc3n2)sc2c1CCCCC2 (stereo not drawn),129
12,C=CCN1C(=O)c2oc3ccccc3c(=O)c2C1c1ccc(O)c(OC)c1 (stereo not drawn),125
13,Cc1ccc2c(c1)/C(=N\NC(=S)Nc1cccc(O)c1)C(=O)N2,81.1
14,CC1C(c2ccc(F)cc2)=NOC1C(=O)NC(c1ccccc1)c1ccnn1C (stereo not drawn),106
15,Cc1ccc(S(=O)(=O)N(C)c2cncc(C(=O)NC(C)C)c2)cc1,123
16,Cc1nc2ccccc2n1C(=O)c1ccccc1C(=O)O,112 ± 15
17,CCOCCn1/c(=N\C(=O)c2cccc(S(C)(=O)=O)c2)sc2cccc(F)c21,110
18,Cc1nn(C)c(C)c1S(=O)(=O)N1CCc2c(c(C(=O)N3CCOCC3)nn2C)C1,104
19,COc1cccc(-c2noc(NC3CCCCC3)n2)c1,127
20,Cc1cc(C)c2cc(CNCC3CCCO3)c3nn(C)c(=O)n3c2c1 (stereo not drawn),136
21,CCCCN(C)S(=O)(=O)c1ccc(C(=O)Nc2ccc3ccccc3c2)cc1,98.3
22,Cc1ccc(S(=O)(=O)Nc2ccccc2C(=O)Nc2sccc2C(N)=O)cc1,149
23,Cc1ccc2nc3c(cc(S(=O)(=O)c4ccc(Cl)cc4)c(=N)n3C3CCCC3)c(=O)n2c1,118
24,CC(=O)Nc1cc(-c2ccccc2)nn1-c1nc(-c2ccccc2)cs1,107
25,Cc1ccc2cc(CCNC(=O)COc3ccc4ccccc4c3)c(=O)[nH]c2c1,129
